Results from article PMC11758950.
No constants are given. Whether binding was seen depends on the method and setting. Binding seen in cells or lysates may run through a third protein. Some entries that bind do so weakly or less than the wild type. Where a sequence is shown, tags or fusion partners need not be part of it.

B1: ELFN2-myc (protein, UniProt Q68FM6 23-823)
chain: DCWLIEGDKGYVWLAICSQNQPPYETIPQHINSTVHDLRLNENKLKAVLYSSLNRFGNLTDLNLTKNEISYIEDGAFLGQTSLQVLQLGYNRLSNLTEGMLRGMSRLQFLFVQHNLIEVVTPTAFSECPSLISIDLSSNRLSRLDGATFASLASLMVCELAGNPFNCECDLFGFLAWLVVFNNVTKNYDRLQCESPREFAGYPLLVPRPYHSLNAITVLQAKCRNGSMPARPVSHPTPYSTDAQREPDENSGFNPDEILSVEPPASSTTDASAGPAIKLHQVTFTSATLVVIIPHPYSKMYVLVQYNNSYFSDVMTLKNKKEIVTLDKLRAHTEYTFCVTSLRNSRRFNHTCLTFTTRDLVPGDLAPSTSTTTHYIMTILGCLFGMVIVLGAVYYCLRKRRMQEEKQKSVNVKKTILEMRYGADVDAGSIVHAAQKLGEPPVLPVARMSSIPSMVGEKLPASKGLEAGLDTPKVATKGNYIEVRTGAAGDSLARPEEELPEIENGQGSAAEISTIAKEVDKVNQIINNCIDALKLDSASFLGGGGGGGGGGDSDLAFECQSLPAAPAASSAATPGALERPSFLSPPYKESSHHPLQRQLSADAAVSRKTCSVSSSGSIKSAKVFSLDVPDHPTPTGLAKSDSKYIEKGSPLNSPLDRLPLVPTGSSGSSGGGGGIHHLEVKPAYHCSEHRHSFPALYYEEGADSLSQRVSFLKPLTRSKRDSTYSQLSPRHYYSGYSSSPEYSSESTHKIWERFRPYKKHHREEVYMAAGHALRKKVQFAKDEDLHDILDYWKGVSAQQKL
B2: ELFN1Δ439-myc (domain or fragment, UniProt Q8C8T7 26-439)
chain: QGDCWLIEGDKGFVWLAICSQNQPPYEAIPQQINNTIVDLRLNENRIRSVQYASLSRFGNLTYLNLTKNEIGYIEDGAFSGQFNLQVLQLGYNRLRNLTEGMLRGLSKLEYLYLQANLIEVVMASAFWECPNIVNIDLSMNRIQQLGSGTFAGLTKLSVCEIYSNPFYCSCELLGFLRWLAAFTNATQTHDRVQCESPPVYAGYFLLGQGRHGHQRSILSKLQSVCTEGSYTAEVLGPPRPVPGRSQPGHSPPPPPPEPSDMPCADDECFSGDGTTPLVILTTLVPQTEARPSMKVKQLTQNSATIMVQLPSPFNRMYTLEQYNNSKSFTVSKLTQPQEEIRLTNLYTLTNYTYCVVSTSSGTHHNHTCLTICLPKPPSPPGPVPSPSTATHYIMTILGCLFGMVLVLGAVYYC
B3: ELFN1Δ501-myc (domain or fragment, UniProt Q8C8T7 26-501)
chain: QGDCWLIEGDKGFVWLAICSQNQPPYEAIPQQINNTIVDLRLNENRIRSVQYASLSRFGNLTYLNLTKNEIGYIEDGAFSGQFNLQVLQLGYNRLRNLTEGMLRGLSKLEYLYLQANLIEVVMASAFWECPNIVNIDLSMNRIQQLGSGTFAGLTKLSVCEIYSNPFYCSCELLGFLRWLAAFTNATQTHDRVQCESPPVYAGYFLLGQGRHGHQRSILSKLQSVCTEGSYTAEVLGPPRPVPGRSQPGHSPPPPPPEPSDMPCADDECFSGDGTTPLVILTTLVPQTEARPSMKVKQLTQNSATIMVQLPSPFNRMYTLEQYNNSKSFTVSKLTQPQEEIRLTNLYTLTNYTYCVVSTSSGTHHNHTCLTICLPKPPSPPGPVPSPSTATHYIMTILGCLFGMVLVLGAVYYCLRKRRRQEEKHKKAVAAAAGSLKKTIIELKYGPEIEAPGLAPLTQGPLLGPEAVTRIPYLPA
B4: ELFN1Δ536-myc (domain or fragment, UniProt Q8C8T7 26-536)
chain: QGDCWLIEGDKGFVWLAICSQNQPPYEAIPQQINNTIVDLRLNENRIRSVQYASLSRFGNLTYLNLTKNEIGYIEDGAFSGQFNLQVLQLGYNRLRNLTEGMLRGLSKLEYLYLQANLIEVVMASAFWECPNIVNIDLSMNRIQQLGSGTFAGLTKLSVCEIYSNPFYCSCELLGFLRWLAAFTNATQTHDRVQCESPPVYAGYFLLGQGRHGHQRSILSKLQSVCTEGSYTAEVLGPPRPVPGRSQPGHSPPPPPPEPSDMPCADDECFSGDGTTPLVILTTLVPQTEARPSMKVKQLTQNSATIMVQLPSPFNRMYTLEQYNNSKSFTVSKLTQPQEEIRLTNLYTLTNYTYCVVSTSSGTHHNHTCLTICLPKPPSPPGPVPSPSTATHYIMTILGCLFGMVLVLGAVYYCLRKRRRQEEKHKKAVAAAAGSLKKTIIELKYGPEIEAPGLAPLTQGPLLGPEAVTRIPYLPAATSDVEQYKLVESSETPKATKGNYIEVRTGEPQER
B5: ELFN1Δ734-myc (domain or fragment, UniProt Q8C8T7 26-734)
chain: QGDCWLIEGDKGFVWLAICSQNQPPYEAIPQQINNTIVDLRLNENRIRSVQYASLSRFGNLTYLNLTKNEIGYIEDGAFSGQFNLQVLQLGYNRLRNLTEGMLRGLSKLEYLYLQANLIEVVMASAFWECPNIVNIDLSMNRIQQLGSGTFAGLTKLSVCEIYSNPFYCSCELLGFLRWLAAFTNATQTHDRVQCESPPVYAGYFLLGQGRHGHQRSILSKLQSVCTEGSYTAEVLGPPRPVPGRSQPGHSPPPPPPEPSDMPCADDECFSGDGTTPLVILTTLVPQTEARPSMKVKQLTQNSATIMVQLPSPFNRMYTLEQYNNSKSFTVSKLTQPQEEIRLTNLYTLTNYTYCVVSTSSGTHHNHTCLTICLPKPPSPPGPVPSPSTATHYIMTILGCLFGMVLVLGAVYYCLRKRRRQEEKHKKAVAAAAGSLKKTIIELKYGPEIEAPGLAPLTQGPLLGPEAVTRIPYLPAATSDVEQYKLVESSETPKATKGNYIEVRTGEPQERRGCELSRPGEPQSSVAEISTIAKEVDRVNQIINNCIDALKSESTSFQGAKSGAVSAAEPQLVLLSEPLASKHSFLSPVYKDAFGHGGLQRHHSVEAAPGPPRASTSSSGSARSPRTFRAEATGTHKAPATETKYIEKSSPVPETILTVTPAATVLRAEADKSRQYGEHRHSYPGSHPAEPPAPPPPPPTHEGLGGRKA
B6: ELFN1Δ600-myc (domain or fragment, UniProt Q8C8T7 26-600)
chain: QGDCWLIEGDKGFVWLAICSQNQPPYEAIPQQINNTIVDLRLNENRIRSVQYASLSRFGNLTYLNLTKNEIGYIEDGAFSGQFNLQVLQLGYNRLRNLTEGMLRGLSKLEYLYLQANLIEVVMASAFWECPNIVNIDLSMNRIQQLGSGTFAGLTKLSVCEIYSNPFYCSCELLGFLRWLAAFTNATQTHDRVQCESPPVYAGYFLLGQGRHGHQRSILSKLQSVCTEGSYTAEVLGPPRPVPGRSQPGHSPPPPPPEPSDMPCADDECFSGDGTTPLVILTTLVPQTEARPSMKVKQLTQNSATIMVQLPSPFNRMYTLEQYNNSKSFTVSKLTQPQEEIRLTNLYTLTNYTYCVVSTSSGTHHNHTCLTICLPKPPSPPGPVPSPSTATHYIMTILGCLFGMVLVLGAVYYCLRKRRRQEEKHKKAVAAAAGSLKKTIIELKYGPEIEAPGLAPLTQGPLLGPEAVTRIPYLPAATSDVEQYKLVESSETPKATKGNYIEVRTGEPQERRGCELSRPGEPQSSVAEISTIAKEVDRVNQIINNCIDALKSESTSFQGAKSGAVSAAEPQLVLL
B7: ELFN1Δ452-myc (domain or fragment, UniProt Q8C8T7 26-452)
chain: QGDCWLIEGDKGFVWLAICSQNQPPYEAIPQQINNTIVDLRLNENRIRSVQYASLSRFGNLTYLNLTKNEIGYIEDGAFSGQFNLQVLQLGYNRLRNLTEGMLRGLSKLEYLYLQANLIEVVMASAFWECPNIVNIDLSMNRIQQLGSGTFAGLTKLSVCEIYSNPFYCSCELLGFLRWLAAFTNATQTHDRVQCESPPVYAGYFLLGQGRHGHQRSILSKLQSVCTEGSYTAEVLGPPRPVPGRSQPGHSPPPPPPEPSDMPCADDECFSGDGTTPLVILTTLVPQTEARPSMKVKQLTQNSATIMVQLPSPFNRMYTLEQYNNSKSFTVSKLTQPQEEIRLTNLYTLTNYTYCVVSTSSGTHHNHTCLTICLPKPPSPPGPVPSPSTATHYIMTILGCLFGMVLVLGAVYYCLRKRRRQEEKHKK
B8: ELFN1Δ471-myc (domain or fragment, UniProt Q8C8T7 26-471)
chain: QGDCWLIEGDKGFVWLAICSQNQPPYEAIPQQINNTIVDLRLNENRIRSVQYASLSRFGNLTYLNLTKNEIGYIEDGAFSGQFNLQVLQLGYNRLRNLTEGMLRGLSKLEYLYLQANLIEVVMASAFWECPNIVNIDLSMNRIQQLGSGTFAGLTKLSVCEIYSNPFYCSCELLGFLRWLAAFTNATQTHDRVQCESPPVYAGYFLLGQGRHGHQRSILSKLQSVCTEGSYTAEVLGPPRPVPGRSQPGHSPPPPPPEPSDMPCADDECFSGDGTTPLVILTTLVPQTEARPSMKVKQLTQNSATIMVQLPSPFNRMYTLEQYNNSKSFTVSKLTQPQEEIRLTNLYTLTNYTYCVVSTSSGTHHNHTCLTICLPKPPSPPGPVPSPSTATHYIMTILGCLFGMVLVLGAVYYCLRKRRRQEEKHKKAVAAAAGSLKKTIIELKYG

Target: T1, EctoELFN1-Fc (mouse) (UniProt Q8C8T7)
T1 sequence: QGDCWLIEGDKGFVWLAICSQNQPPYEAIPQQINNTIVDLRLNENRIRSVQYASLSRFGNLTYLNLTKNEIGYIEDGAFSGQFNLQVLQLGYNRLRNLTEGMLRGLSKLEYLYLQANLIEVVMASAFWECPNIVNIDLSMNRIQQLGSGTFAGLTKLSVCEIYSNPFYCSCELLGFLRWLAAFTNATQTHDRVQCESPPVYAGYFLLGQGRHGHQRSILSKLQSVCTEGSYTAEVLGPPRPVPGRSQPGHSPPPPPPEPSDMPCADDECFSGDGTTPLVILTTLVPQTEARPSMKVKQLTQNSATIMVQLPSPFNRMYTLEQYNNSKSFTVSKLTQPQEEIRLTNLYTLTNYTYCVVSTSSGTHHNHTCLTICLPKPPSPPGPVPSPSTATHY
Experiment: pull-down; Fc or EctoELFN1-Fc secreted into OPTI-MEM (48 h) incubated with Protein G Sepharose beads and lysate of ELFN1-myc or ELFN2-myc transfected HEK 293 T/17 cells in 1% Triton-X lysis buffer, 1 h at 4 C, washed 3 times; blot with myc antibody

binding, binds:
B1

Target: T2, ELFN1-Venus (mouse) (UniProt Q8C8T7)
T2 sequence: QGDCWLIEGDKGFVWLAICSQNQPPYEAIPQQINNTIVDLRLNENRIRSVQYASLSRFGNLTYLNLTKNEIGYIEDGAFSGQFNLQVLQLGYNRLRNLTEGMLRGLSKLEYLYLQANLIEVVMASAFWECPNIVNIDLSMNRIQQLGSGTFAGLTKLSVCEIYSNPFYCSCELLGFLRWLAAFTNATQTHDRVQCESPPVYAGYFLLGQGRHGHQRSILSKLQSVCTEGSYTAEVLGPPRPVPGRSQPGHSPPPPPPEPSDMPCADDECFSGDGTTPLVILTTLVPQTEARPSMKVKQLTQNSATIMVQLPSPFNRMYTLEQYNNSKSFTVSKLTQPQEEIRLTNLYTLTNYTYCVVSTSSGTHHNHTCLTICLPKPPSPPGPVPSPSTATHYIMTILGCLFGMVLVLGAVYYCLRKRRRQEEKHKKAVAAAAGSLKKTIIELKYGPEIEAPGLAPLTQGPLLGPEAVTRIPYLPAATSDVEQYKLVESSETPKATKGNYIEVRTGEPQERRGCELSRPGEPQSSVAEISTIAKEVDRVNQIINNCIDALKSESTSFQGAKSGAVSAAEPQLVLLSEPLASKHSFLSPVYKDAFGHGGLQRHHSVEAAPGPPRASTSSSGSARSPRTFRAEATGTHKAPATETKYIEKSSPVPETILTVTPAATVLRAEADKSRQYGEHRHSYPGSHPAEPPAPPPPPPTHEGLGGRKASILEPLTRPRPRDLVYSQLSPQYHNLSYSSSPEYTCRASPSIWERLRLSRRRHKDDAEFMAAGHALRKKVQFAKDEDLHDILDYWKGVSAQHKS
Experiment: co-IP; co-transfected HEK 293 T/17 cells (2.5 ug of each construct), 1% Triton-X lysis buffer; Protein G Sepharose beads with mouse GFP antibody, 1 h at 4 C, washed 3 times; blot with myc antibody

binding, binds:
B2, B3, B4, B5, B6, B7, B8
